# Screen size: about 320,000 compounds; about 620 (0.19%) were called active. This list was built around the results that the source calls inconclusive (neither active nor inactive); the mix of calls is not that of the screen. No stated cut-off is given here; in the data, active means activation above about 80%; inconclusive means between about 30% and that limit; inactive means weaker than that.
# Sequences of proteins named here, by UniProt entry; tags and fusion partners are left off.
# UniProt Q8NER1, whole entry, looked up: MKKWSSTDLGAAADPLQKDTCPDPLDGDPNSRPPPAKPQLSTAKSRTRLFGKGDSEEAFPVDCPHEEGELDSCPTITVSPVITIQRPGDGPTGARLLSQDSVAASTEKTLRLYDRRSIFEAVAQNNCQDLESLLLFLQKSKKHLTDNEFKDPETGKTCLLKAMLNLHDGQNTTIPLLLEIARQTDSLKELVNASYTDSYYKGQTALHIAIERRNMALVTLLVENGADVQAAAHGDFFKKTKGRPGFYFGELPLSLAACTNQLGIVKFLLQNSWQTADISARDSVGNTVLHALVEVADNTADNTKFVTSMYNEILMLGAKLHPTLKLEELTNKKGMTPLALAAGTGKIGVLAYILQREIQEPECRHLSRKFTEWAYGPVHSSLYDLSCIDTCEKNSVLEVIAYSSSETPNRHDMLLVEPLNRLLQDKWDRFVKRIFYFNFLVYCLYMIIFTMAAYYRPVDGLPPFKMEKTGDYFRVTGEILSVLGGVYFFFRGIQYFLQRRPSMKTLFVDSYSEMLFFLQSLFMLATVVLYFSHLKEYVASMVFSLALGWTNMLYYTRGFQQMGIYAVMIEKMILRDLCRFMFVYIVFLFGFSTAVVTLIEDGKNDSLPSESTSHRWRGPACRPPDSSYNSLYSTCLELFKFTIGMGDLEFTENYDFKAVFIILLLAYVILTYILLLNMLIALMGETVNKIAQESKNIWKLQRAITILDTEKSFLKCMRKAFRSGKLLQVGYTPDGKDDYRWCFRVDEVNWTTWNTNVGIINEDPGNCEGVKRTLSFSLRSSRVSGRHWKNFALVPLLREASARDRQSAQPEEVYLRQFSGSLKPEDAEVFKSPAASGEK
# Molecular target: Transient receptor potential cation channel subfamily V member 1 (Homo sapiens) (UniProt Q8NER1)
# Assay: HTS Assay for Compounds that Act as Agonists of the Vanilloid Receptor 1; further: 0% is about no effect
# Conditions: TRPV1-expressing cells, Fluo-8 calcium influx, agonist mode; at 8.33 µM, hits give high values
# Summary of the method: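 TRPV1-expressing cells were cultured overnight at 35.5C and loaded with Fluo-8 calcium dye for 40 to 90 min at room temperature. After a 10 s baseline, compound was added and calcium influx was read kinetically for 3 min (ex 480/em 520 nm).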
row,Structure (SMILES),activation
1,O=C(CN1C(=O)NC2(CCCC2)C1=O)OCc1ccc(Br)cc1,inactive: -2.8%
2,CC(=O)CCC(=O)c1ccc2ccccc2c1,inconclusive: 39.6%
3,COc1ccc(NC(=O)c2cc(Cl)ccc2NC(=O)c2ccco2)c(OC)c1,inactive: 5.05%
4,O=C(CSc1nc2ccccc2o1)Nc1ccc(N2CCOCC2)cc1,inconclusive: 58.7%
5,O=C1CC(c2cccs2)Sc2nc3ccccc3n21 (stereo unspecified),inactive: 0.488%
6,S=C(NCc1ccco1)Nc1ccc(Cl)c(Cl)c1,inconclusive: 50%
7,Cc1nn(-c2ccc(C(=O)NCC(c3ccco3)N3CCCC3)cc2)c(C)c1Cl (stereo unspecified),inactive: 1.63%
8,COc1cc(OC)cc(-c2nnc(SCc3cccnc3)o2)c1,inconclusive: 75.6%
9,CC(=O)c1cccc(NC(=O)c2cccc(S(=O)(=O)N(C)C)c2)c1,inactive: -0.394%
10,N#Cc1c(-c2ccccc2F)cc(-c2cccnc2)nc1N,inconclusive: 73.7%
11,CC(C)Cn1c(=S)[nH]c2ccccc2c1=O,inconclusive: 34.7%
12,CCOC(=O)C1(Cc2cccc(Cl)c2)CCCN(C(=O)c2ccc(COC)s2)C1 (stereo unspecified),inconclusive: 37.3%
13,Oc1c(N=NC(=S)Nc2ccccc2F)c2ccccc2n1Cc1ccc(Cl)cc1,inactive: -2.69%
14,CCOc1ccccc1N(CC(=O)NCCSc1ccccn1)S(=O)(=O)c1ccccc1,inconclusive: 49.4%
15,CCC(Sc1nc2c(c(=O)n1CC)SC(C)C2)C(=O)OC (stereo unspecified),inactive: 13.3%
16,Cc1ccc(NC(=O)CC2C(=O)OCC3CCCCN32)cc1Cl (stereo unspecified),inconclusive: 36%
17,Cc1cc(OCC(=O)NC(C)C)cc(C)c1Br,inconclusive: 35.1%
18,O=C(CCc1ccccc1)c1ccc2c(c1)OCCCO2,inconclusive: 53.4%
19,Cc1c(Br)cc(C(=O)NCCCN2CCOCC2)c(C)c1C,inactive: 4.1%
20,CCc1nnc(NC(=O)C23CC4CC(CC(C4)C2)C3)s1,inconclusive: 34.2%
21,CCCCN(CCCC)CC(O)COc1ccccc1Br (stereo unspecified),inactive: 3.8%
22,CCN1CCN(c2c(/C=C3\SC(=S)N(Cc4ccco4)C3=O)c(C)c(C#N)c(=O)n2C)CC1,inactive: -4.1%
23,CN(Cc1ccccc1)C(=O)COc1ccc(C(C)(C)C)cc1,inconclusive: 30.8%

# Already shown: entries from further up.
row,Structure (SMILES),activation
8,COc1cc(OC)cc(-c2nnc(SCc3cccnc3)o2)c1,inconclusive: 75.6%
9,CC(=O)c1cccc(NC(=O)c2cccc(S(=O)(=O)N(C)C)c2)c1,inactive: -0.394%
10,N#Cc1c(-c2ccccc2F)cc(-c2cccnc2)nc1N,inconclusive: 73.7%
11,CC(C)Cn1c(=S)[nH]c2ccccc2c1=O,inconclusive: 34.7%
12,CCOC(=O)C1(Cc2cccc(Cl)c2)CCCN(C(=O)c2ccc(COC)s2)C1 (stereo unspecified),inconclusive: 37.3%
13,Oc1c(N=NC(=S)Nc2ccccc2F)c2ccccc2n1Cc1ccc(Cl)cc1,inactive: -2.69%
14,CCOc1ccccc1N(CC(=O)NCCSc1ccccn1)S(=O)(=O)c1ccccc1,inconclusive: 49.4%
15,CCC(Sc1nc2c(c(=O)n1CC)SC(C)C2)C(=O)OC (stereo unspecified),inactive: 13.3%

# The results go on.

row,Structure (SMILES),activation
1,O=C(NN=C1CCCCCC1)c1ccc2c(c1)OCO2,inconclusive: 68.7%
2,O=C1C(Cl)=C(Nc2ccc(F)cc2)C(=O)N1CCc1ccccc1,inconclusive: 45.9%
3,COCc1nn2c(N)c(-c3ccccc3)cnc2c1-c1ccccc1,inactive: 12.1%
4,CCCOC(=O)c1ccc(OCC(O)Cn2c(C)nc3ccccc32)cc1 (stereo unspecified),inactive: 6.5%
5,O=C(Nc1cccc(S(=O)(=O)N2CCOCC2)c1)c1ccc2c(=O)n3c(nc2c1)CCCCC3,inconclusive: 45.3%
6,CCOC(=O)C1CCCN(S(=O)(=O)c2cnc(Cl)c(Br)c2)C1 (stereo unspecified),inconclusive: 44%
7,Cc1cc(C)n2nc3nc4c(cc3c2n1)CCCC4,inactive: 16.3%
8,Cc1cc(C(=O)NC2CC(C)(C)Cc3c2cnn3-c2ccccc2C)c(C)o1 (stereo unspecified),inconclusive: 52.9%
9,O=C(Nc1ccc2c(c1)Cc1ccccc1-2)c1cccnc1,inconclusive: 39.5%
10,COc1cc(C)c(S(=O)(=O)NCc2cccs2)cc1C,inactive: -0.562%
11,O=C(NCCc1ccccc1)C(=O)NCC1(c2ccccc2)CCCC1,inactive: 11.4%
12,CC(=O)c1ccc(NC(=O)c2onc(C)c2Cl)cc1,inconclusive: 47.8%
13,Cc1cccc(NC(=S)NN(Cc2ccccc2)c2ccccc2)c1C,inconclusive: 71.4%
14,Cc1sc2ncnc(N3CCN(CCOc4ccc(Cl)cc4)CC3)c2c1C,inactive: 4.92%
15,CCN(CC)CCn1c(=S)[nH]c2cc(C(=O)NCc3ccccc3Cl)ccc2c1=O,inactive: 1.57%
16,CCCNC(=O)c1cc2cc([N+](=O)[O-])ccc2s1,inconclusive: 34.6%
17,CC(=O)c1sc(Nc2nc3cc4c(cc3s2)OCO4)nc1C,inactive: 3.93%
18,CC1(C)CCC[C@]2(C)[C@H]3CC(=O)O[C@]3(C)CC[C@@H]12,inactive: 10.7%
19,O=C(CCc1nc2ccccc2s1)Nc1ccccc1,inconclusive: 48.9%
20,O=C(NN=C1CCCCCC1)c1cc(-c2ccccc2)nc2ccccc12,inactive: -1.47%
21,COc1ccc(NC(=O)c2ccco2)c(NC(=O)c2ccc([N+](=O)[O-])cc2)c1,inconclusive: 42.5%
22,O=C(Nc1ccc(C(=O)O)cc1)/C(=C\C=C\c1ccccc1)NC(=O)c1ccc(Br)cc1,inconclusive: 31.2%
23,Cc1ccc(Cl)cc1N1CCN(CC(O)COCc2ccco2)CC1 (stereo unspecified),inactive: 3.4%

# — PubChem BioAssay AID540275 (National Center for Advancing Translational Sciences (NCATS), 2011)
